Assay results: patent publication US6916845B2, “Method for prevention and treatment of male and female sexual dysfunction” (priority 1999, dated 2005)

Tested on: iNOS mRNA
Assay: iNOS mRNA expression in penis of castrated rat model by RT-PCR
Format: in vivo
Details: 3 months
Procedure: Male Wistar rats(300-350 g)(n=24) randomly divide into 4 Groups; Group A for control; Group B for castrated and administration normal saline; Group C for castrated and oral administration Icariin […]; Group D for castrated and oral administration Icariin (5 mg/kg) for 3 months. After observe mating behavior, the animal was killed, the penis was excised rapidly, and cut into four parts. One of them used for immuohistochemical stain, the others was socked into RNAlater and stored in −70 condition. nNOS, eNOS, iNOS mRNA were semi-quantified by RT-PCR, β-actin as a controls. Specificity of RT-PCR products was confirmed by sequencing procedure, with-assay and between-assay variation was carried out respectively.

COc1ccc(-c2oc3c(CC=C(C)C)c(O[C@@H]4O[C@H](CO)[C@@H](O)[C@H](O)[C@H]4O)cc(O)c3c(=O)c2O[C@@H]2O[C@@H](C)[C@H](O)[C@@H](O)[C@H]2O)cc1 [Icariin, icariin]
Mean conc./area (β-actin) (Group C, oral Icariin (mg/kg)): 34.56 | Mean conc./area (β-actin) (Group D, oral Icariin 5 mg/kg): 31.36
